Some of the results follow. The main result of the screen is listed elsewhere. These columns were measured beside it and carry no call. Compounds called inactive in the main read-out are mostly missing here. Potencies come from curve fits of mixed quality, noted in brackets.
Experiment: qHTS Assay to Find Inhibitors of Chronic Active B-Cell Receptor Signaling
Settings: ABC-DLBCL IkBa-CBG/CBR reporter, luminescence ratio (green luciferase fused to IkBa over red control in TMD8 lymphoma cells), 4 h
Method in brief: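 TMD8 ABC-DLBCL cells carrying doxycycline-inducible green luciferase fused to IkappaBalpha plus unfused red luciferase were exposed to compounds (up to 46 uM) for 4 hrs at 37C. Activity came from the overlap-corrected green/red luminescence ratio.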

[1] = measured here: CBR red luminescence, cell number
[2] = measured here: IkBa-CBG green luminescence

Compound | AC50 [1] | AC50 [2]
Cc1ccc(NC(=O)c2cnc(SCC(=O)N3CCCc4ccccc43)n(C)c2=O)cc1C | 11.2 µM [rising, partial curve, poor fit] | 
O=C(NCc1cccs1)c1nn2cccnc2c1Cl | 16.4 µM [falling, partial curve, poor fit] | 
O=C(CC1C(=O)N(Cc2ccccc2)C(=S)N1CCN1CCOCC1)Nc1ccc(F)cc1 (stereo unspecified) | 17.8 µM [falling, partial curve, poor fit] | 
CC(=O)Nc1cccc(C(=O)OCC(=O)N(c2ccccc2)C2CCS(=O)(=O)C2)c1 (stereo unspecified) | 18.4 µM [falling, partial curve] | 
COC(=O)c1ccc(Cn2c(C)cc(C)[n+]2C)o1 | 6.51 µM [falling, single point] | 
CCOC(=O)CN(C)Cc1c[nH]c2ccccc12 | 32.6 µM [rising, single point] | 
COc1ccc(S(=O)(=O)N2CCC[C@H]2C(=O)NCc2ccc(Cl)cc2)cc1 | 3.98 µM [falling, single point] | 
O=C(NC1CCN(C(=O)c2ccccc2Br)CC1)c1ccccc1 | 5.62 µM [falling, single point] | 
Cc1cc(C)cc(-n2ncc3c2CCCC3NC(=O)C2CCC2)c1 (stereo unspecified) | 35.5 µM [rising, single point] | 
C=CCn1c(-c2ccc(OC)cc2)csc1=Nc1c(C)n(C)n(-c2ccccc2)c1=O | 6.51 µM [falling, single point] | 
NC(=S)N/N=C/c1cn(CCC(=O)O)nc1-c1cccc(Br)c1 | 14.1 µM [rising, partial curve, poor fit] | 
CCOc1ccccc1NC(=O)Cn1nnc(C(=O)NCCc2ccc(OCC)c(OCC)c2)c1N | 12.6 µM [rising, partial curve, poor fit] | 
O=C(O)/C=C/c1coc2ccccc2c1=O | 9.2 µM [falling, partial curve] | 
CCCn1c(CNc2ccccc2O)nc2ccccc21 | 18.4 µM [falling, partial curve, poor fit] | 
Cc1cc(N2CCC(C(=O)NC3CCCCC3)CC2)nc(-c2ccccc2)n1 | 5.8 µM [rising, full curve, poor fit] | 
CC1CCCN(C(=O)Cc2cn(Cc3cccc(Cl)c3)c3ccccc23)C1 (stereo unspecified) |  | 23.1 µM [rising, partial curve, poor fit]
Cc1ccccc1OCc1nc(-c2cccnc2)no1 | 0.112 µM [falling, full curve, poor fit] | 
O=C(O)/C=C\C(=O)Nc1ccc(OCc2ccccc2)cc1 | 17.8 µM [falling, single point] | 
CN(C)c1ccc(N=Cc2nc(-c3ccccc3)oc2OC(=O)c2cccc(Br)c2)cc1 | 13 µM [falling, partial curve] | 
Cc1cccc2sc(N(CCCN(C)C)C(=O)c3sc4ccccc4c3Cl)nc12 | 4.61 µM [falling, partial curve] | 

Compound | AC50 [1] | AC50 [2]
c1ccc(N2CC3CCc4ccccc4C3=N2)cc1 (stereo unspecified) | 2.82 µM [rising, full curve] | 
CCOc1ccc(-c2nnc(-c3ccccc3)n2-c2ccccc2)cc1 | 4.11 µM [rising, full curve, poor fit] | 
CCOC(=O)C(C(C)=O)c1nc(C)nc2c1nnn2Cc1ccccc1Cl (stereo unspecified) | 7.31 µM [falling, partial curve] | 4.61 µM [rising, partial curve, poor fit]
CN(CC(=O)Nc1ccc(Cl)c(Cl)c1)C(=O)CNC(=O)Cc1ccccc1 | 20.6 µM [rising, single point] | 
Cc1ccc(NC(=O)COC(=O)CN2C(=O)C3CCCCC3C2=O)cc1S(=O)(=O)N1CCOCC1 (stereo unspecified) | 10.3 µM [rising, partial curve, poor fit] | 
CN(C)c1ccc(/C=N/NC(=O)c2ccccc2)cc1 | 1.26 µM [falling, partial curve] | 
COc1cc(NC2c3ccccc3C(=O)N2Cc2ccc3c(c2)OCO3)cc(OC)c1OC (stereo unspecified) | 0.517 µM [rising, partial curve, poor fit] | 
CC1(C)C(=O)Nc2ccccc2N1C(=O)Cn1ncc(Cl)c(Cl)c1=O | 22.4 µM [falling, single point] | 
CS(=O)(=O)N1CCC(Oc2ccccc2C(=O)NC(C2CC2)C2CC2)CC1 | 5.62 µM [rising, partial curve, poor fit] | 
O=C(c1ccccc1)N1CCC(c2nc3c(nnn3Cc3ccccc3Cl)c(=O)[nH]2)CC1 | 5.17 µM [falling, partial curve] | 
O=C(NNC(=S)Nc1ccccc1)c1ccco1 | 3.55 µM [falling, partial curve] | 
O=C(COC(=O)CCCN1C(=O)c2ccccc2C1=O)Nc1ncc(Cl)cc1Cl | 17.8 µM [rising, partial curve, poor fit] | 
CCOc1ccc(CNC(=O)c2ccc(Sc3ccc(C)cc3)c(N)c2)cc1OC | 10 µM [falling, partial curve, poor fit] | 
CC(C)(C)c1ccc(NC(=O)C2=CC=CN3CCS(=O)(=O)N=C23)cc1 | 16.4 µM [rising, partial curve, poor fit] | 
Cc1nn(C)cc1C1C(C#N)=C(N)N(c2ccc(F)c([N+](=O)[O-])c2)C2=C1C(=O)CCC2 (stereo unspecified) | 20.6 µM [falling, single point] | 
COc1ccccc1Nc1nc2nonc2[nH]c1=O | 15.8 µM [falling, single point] | 
O=C(Nn1cnnc1)c1cc(-c2cccc(Br)c2)nc2ccccc12 | 31.6 µM [rising, single point] | 
CCC(=O)Nc1nc2ccc3sc(C)nc3c2s1 | 10 µM [falling, partial curve, poor fit] | 
CCOc1ccc(CCNC(=O)C2CCCN(c3nn4c(=O)cc(C)nc4s3)C2)cc1OCC (stereo unspecified) | 6.51 µM [rising, single point] | 
COc1cccc(CNn2c(-c3cccc(C)c3)nc3ccccc3c2=O)c1 | 29.1 µM [falling, single point] | 

One compound at a time, as listed above.
NC(=S)N/N=C/c1cn(CCC(=O)O)nc1-c1cccc(Br)c1 as listed: AC50 [1]: 14.1 µM [rising, partial curve, poor fit]
O=C(COC(=O)CCCN1C(=O)c2ccccc2C1=O)Nc1ncc(Cl)cc1Cl as listed: AC50 [1]: 17.8 µM [rising, partial curve, poor fit]
